Results deposited as PubChem BioAssay AID602196 (INSERM, 2012)

Purpose: 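Genes whose knock-down alters cisplatin killing of lung cancer cells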
System: human A549 lung cancer cells
Reagents: siRNA pair against human genes
Timing: 48 h transfection before cisplatin; time from cisplatin to read-out not stated
Treatment: cisplatin at a dose killing half of control-siRNA cells; exact dose and duration not given
Read-out: 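Shift in cisplatin death relative to control siRNA, from -50 (all cells die) to +50 (no cells die); siRNAs harmful on their own scored 0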
Direction: two-siRNA summed score (-2 to +2): higher = both siRNAs protect from cisplatin killing; -2 means both sensitise
Call rule: 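siRNAs harmful alone (LDH or WST-1) get 0; others get +1 for less and -1 for more cisplatin killing; genes are active when the two siRNAs give the same sign, summing to ±2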
Meaning of the calls: active = both siRNAs shift cisplatin killing the same way; inactive = no consistent shift, or siRNA harmful alone
The whole screen tested about 23,000 reagents; shown is a part drawn at random. 455 of them (2%) were called active. 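Active includes both protection and sensitisation; some change values fall well beyond the stated -50 to +50 range.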 Entries without a mark were called inactive. Further read-outs or replicates are left out here. Not stated in the record: the amount of reagent.

With knock-down of LOC440559 [SID131520234], the record shows two-siRNA summed score (-2 to +2) = 1.
After knock-down of DUSP19 [SID131503223], the record shows two-siRNA summed score (-2 to +2) = 0.
LOC440050 [SID131522992] showed two-siRNA summed score (-2 to +2) = 2 (active).
Silencing of ARMC7 [SID131508313] resulted in: two-siRNA summed score (-2 to +2) = 0.
LOC151579 [SID131515606] scored two-siRNA summed score (-2 to +2) = 0.
Depletion of KIAA0513 [SID131515832] came out at: two-siRNA summed score (-2 to +2) = 0.
OR10A5 [SID131504791] showed two-siRNA summed score (-2 to +2) = 0.
Against LOC389939 [SID131502061] the deposit lists two-siRNA summed score (-2 to +2) = -1.
Silencing of DNM1P28 [SID131523073] resulted in: two-siRNA summed score (-2 to +2) = 2 (active).
Against LOC341912 [SID131517658], the values are two-siRNA summed score (-2 to +2) = 0.
ZWINT [SID131501287] showed two-siRNA summed score (-2 to +2) = -1.
HERC6 [SID131514913] scored two-siRNA summed score (-2 to +2) = 0.
For CAPZA1 [SID131508569] the deposit lists two-siRNA summed score (-2 to +2) = 0.
LCE3D [SID131518338] showed two-siRNA summed score (-2 to +2) = 0.

Hits, among the entries above:
LOC440050 [SID131522992] → two-siRNA summed score (-2 to +2) = 2 (active)
DNM1P28 [SID131523073] → two-siRNA summed score (-2 to +2) = 2 (active)

The results go on:
CCER1 [SID131507314] showed two-siRNA summed score (-2 to +2) = 0.
For ERMAP [SID131522695], the values are two-siRNA summed score (-2 to +2) = 1.
Depletion of RGS9 [SID131507600] gave: two-siRNA summed score (-2 to +2) = 0.
LYRM1 [SID131511820] scored two-siRNA summed score (-2 to +2) = 0.
After knock-down of PIK3C3 [SID131504268], the screen gave two-siRNA summed score (-2 to +2) = 0.
After knock-down of NOP16 [SID131500432], the screen gave two-siRNA summed score (-2 to +2) = -1.
DTNBP1 [SID131522700] gave two-siRNA summed score (-2 to +2) = 1.
